Results reported in PubChem BioAssay AID1508600 (Functional Genomics Laboratory (NCATS/FGL), 2020).
Hit rate of the full screen: of about 53,000 sequences, about 3,700 (7%) were called active.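 The calls were made as follows: active = gene knockdowns whose robust z-score for IL-1 alpha signal is at least 2 or at most -2, so actives lie on both sides; inactive = the rest.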 The list shows a part of the results.

Assay: Components of the Cytosolic LPS Sensing Pathway: Gene Identification via Genome-wide siRNA Screen;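 also: robust z of the log signal after scaling to non-targeting control siRNA wells of the plate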
Settings: RAW264.7 macrophages, IL-1a HTRF, actives lie on both sides, screened at 100 nM (by protocol), cells primed 5 h with Pam3CSK4 first
Summary of the method: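 Three distinct siRNAs per gene were tested singly at 100 nM in RAW264.7 macrophages. Following Pam3CSK4 priming and 24 hour LipidA transfection, IL-1a secretion was read by HTRF.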

Row | Sequence | z-score
1 | CGCAUCUUAUCUUUCCUAATT against Ngly1 | inactive: 0.324
2 | CGAUUCAAUGUACCUGUAATT against Sarnp | inactive: -0.921
3 | GGAUUCUUUCCCUUUGUGCTT against Bicdl2 | inactive: 0.101
4 | GGAUUUGUAAAUUACCUGGTT against Clec4d | inactive: 0.544
5 | CCAGAAACUAGCCUACUACTT against Vgll2 | inactive: 0.395
6 | GGACUUCGAAAGUUUAUCCTT against Ttc41 | inactive: -1.76
7 | CCUGGAAUAGACUGAAUUATT against Fam20b | inactive: 0.73
8 | GCUGAUGAGUGGCUAUCAGTT against Coro6 | inactive: -1.19
9 | UAGGAAUUGGCUUCUACCUTT against Tdpoz2 | inactive: -0.818
10 | CGUGCUGUGCCUUCUGAGUTT against Gtf2e2 | inactive: 0.913
11 | GGGCAAAUUAGAGACCAAGTT against Nwd2 | inactive: 0.692
12 | GGCGGCUUUAGACAAGUAATT against Mrpl13 | inactive: -0.331
13 | GCAUUAGUGGCAGAACUUUTT against Gcsam | inactive: 1.42
14 | GGACUUGAUGACAGUGAAUTT against Strada | active: -2.27
15 | GCUUCGACACUUUAUUUCUTT against Cnp | inactive: 0.26
16 | CCACUUUAAGACUGACUGUTT against Tnfrsf25 | inactive: 1.57
17 | CCUACAUGGGCAUCAUUAGTT against Tfpi2 | inactive: -0.182
18 | GGCCGAAUCACAGAAACUCTT against Mrps18a | inactive: 1.87
19 | GUUUCUGGAGACGGUGGAGTT against Rpl10a | inactive: 1.74
20 | GCGAAACUUCCAGAUCUAGTT against Cnot11 | active: 2.14
21 | GGAGAUUGCUAAUAGCUGUTT against Cldn15 | inactive: 0.723
22 | CCUAUAUAAACACUCGAAATT against Zbtb5 | inactive: 0.0409
23 | GGAGUAAAUUGAGAAACCATT against Acsm5 | inactive: -0.149

Row | Sequence | z-score
24 | GGCAGACAUCACAAUGGCUTT against Hemgn | inactive: -0.201
25 | GCAAAUUUAAGAGAAGUUGTT against Dse | inactive: -0.132
26 | CCUUUCCAUCCCAGAAAAATT against Gm11437 | inactive: -0.0413
27 | GGGUCACUUUAUGCAUCUUTT against Fam168a | inactive: -1.37
28 | GGAGUCCUAAAGAGUUCUATT against Slc11a1 | inactive: 0.723
29 | GGUAAAGGAUGCUUUUAAGTT against Olfr801 | inactive: 0.99
30 | GGUUACAAAUGAUUGUUCATT against Phxr2 | inactive: 1.05
31 | GGUGGUGAAUAUGAUGAUATT against Tsr1 | inactive: -0.712
32 | GCGGUUUCUUCGAGAAACUTT against Mau2 | inactive: -1.03
33 | GGAUGUGACCCACUUUAUATT against Zhx3 | inactive: 1.01
34 | GGUGACUUUCUGAAACUCCTT against Hoxa5 | inactive: -1.75
35 | GGCCUUCAACAUUGACCGATT against Kcnc4 | inactive: 0.166
36 | GGGUCUGCGUGACAAUUACTT against 4930542C12Rik | inactive: 1.21
37 | GGCUGAAGUUAACAGUAAGTT against Gprasp1 | inactive: 0.473
38 | GGAGAAAAAGUUACGUCGATT against Stk38l | inactive: 0.866
39 | GCAAGCAAACUGGAGUUGATT against Trim68 | inactive: 0.277
40 | GGGCUACAUUCCUUCCAAUTT against Frk | active: 5.59
41 | GGCCUCAUGAAGAACCUUCTT against Pparg | inactive: -1.27
42 | GGACGAUCUAGCAUUCAUGTT against Fat3 | inactive: 0.349
43 | GGUUGUGACUUCUCAUUUUTT against Ccnb1 | inactive: -0.0479
44 | GGCCCACCUAUUUCAUCUCTT against Actl7b | inactive: -0.634
45 | GGAAGAUAAUGGGAAUUUCTT against Acp2 | inactive: -0.424
46 | GGUUUAAUAGACGACAAUGTT against Ube2g1 | inactive: -1.39

Random excerpt: 3 entries already listed, in no set order.
Row | Sequence | z-score
39 | GCAAGCAAACUGGAGUUGATT against Trim68 | inactive: 0.277
27 | GGGUCACUUUAUGCAUCUUTT against Fam168a | inactive: -1.37
41 | GGCCUCAUGAAGAACCUUCTT against Pparg | inactive: -1.27

Additional results

Row | Sequence | z-score
47 | GCUGGUAUACAGAAUAAACTT against Mfn1 | inactive: 0.468
48 | GCAUGAAUUCAAAUUGCCATT against Adgrl4 | inactive: -0.981
49 | GGAGUUACCUGGAUAUUAUTT against Car8 | inactive: -0.499
50 | GGGACACCAAGUUUUCCAUTT against Paqr7 | inactive: 1.63
51 | GGAAGUUUCCCAUCAGUGATT against Cryab | inactive: -0.486
52 | CGGUGCAGAUGUCGACGAUTT against Znrd2 | inactive: 0.494
53 | GGGUGACCUUUUGUUUUUATT against Cfl2 | inactive: 1.36
54 | GGGCCUUACGUCAUUCUCUTT against Dnajb7 | inactive: -0.319
55 | GGAUGAACAACAAUCAAACTT against Btrc | inactive: 0.704
56 | GGUAAGUCCUAACAAACAATT against Nxph2 | inactive: 0.226
57 | GGACAAGCAAGAAGGAAUUTT against Polr2j | active: -2.43
58 | GGUAGAAGUGAAAAAGAUATT against Bhmt | inactive: -0.386
59 | GCUAUCUAAGCAAAAGAGATT against Iftap | inactive: 1.69
60 | GCUUAUAAAAGUGAAUCGGTT against Chmp2b | inactive: 0.501
61 | GGCAGUGGAGUGUAUGGAUTT against Popdc2 | inactive: -0.531
62 | GGACAGAAUGGAAAUUCUUTT against Efna2 | inactive: -0.275
63 | GGGCAAAUUCUCAAGAAAATT against Tbc1d9 | inactive: 0.614
64 | CCUACUAGUGCAUUUGUAATT against Gabarapl2 | inactive: -0.0741
65 | CCCAGGUUGACAAGAACUCTT against Socs7 | inactive: -0.0474
66 | GGUAACGAUGCUGGAAUUCTT against Sdcbp | active: 4.37
67 | CGUAAGUGGACGACGGUUCTT against Kcnd3 | inactive: 0.106
68 | GGUGAAAAUAAUAGAGCGGTT against Maats1 | inactive: 1.21
69 | GGAAGAAGAUGGAGAUAAATT against Neurod4 | inactive: 0.665
